The assay has as its target T1, CLPC1-TRAP-STREPII (Arabidopsis thaliana) (UniProt Q9FI56).
T1 sequence: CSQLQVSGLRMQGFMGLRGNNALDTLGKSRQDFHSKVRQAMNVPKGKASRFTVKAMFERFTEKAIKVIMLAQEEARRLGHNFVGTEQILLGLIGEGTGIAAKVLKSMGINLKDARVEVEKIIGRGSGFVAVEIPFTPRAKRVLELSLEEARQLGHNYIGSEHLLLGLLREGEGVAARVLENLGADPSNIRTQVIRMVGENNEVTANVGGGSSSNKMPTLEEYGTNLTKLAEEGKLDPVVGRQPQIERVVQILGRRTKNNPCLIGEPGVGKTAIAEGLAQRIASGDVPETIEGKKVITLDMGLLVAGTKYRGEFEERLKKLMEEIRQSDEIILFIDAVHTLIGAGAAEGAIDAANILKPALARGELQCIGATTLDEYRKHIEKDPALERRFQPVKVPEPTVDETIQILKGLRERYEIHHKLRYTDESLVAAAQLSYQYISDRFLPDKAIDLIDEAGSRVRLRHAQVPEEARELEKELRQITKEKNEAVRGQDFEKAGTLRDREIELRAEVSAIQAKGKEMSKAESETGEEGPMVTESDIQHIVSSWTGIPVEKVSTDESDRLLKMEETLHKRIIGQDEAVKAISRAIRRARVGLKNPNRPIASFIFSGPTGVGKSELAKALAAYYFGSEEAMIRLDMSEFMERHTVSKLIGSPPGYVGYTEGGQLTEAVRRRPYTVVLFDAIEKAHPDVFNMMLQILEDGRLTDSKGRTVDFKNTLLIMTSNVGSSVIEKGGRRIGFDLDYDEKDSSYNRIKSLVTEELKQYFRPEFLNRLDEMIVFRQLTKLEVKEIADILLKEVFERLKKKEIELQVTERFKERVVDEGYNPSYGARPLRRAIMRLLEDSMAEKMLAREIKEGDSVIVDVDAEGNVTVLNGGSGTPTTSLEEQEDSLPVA
In words: affinity purification with mass spectrometry; STREPII-tagged CLPC1-WT or CLPC1-TRAP from soluble leaf proteome of transgenic Arabidopsis rosettes, nondenaturing; StrepTactinXT beads, 50 mM Hepes-KOH pH 8.0, 15% glycerol, 10 mM MgCl2, 75 mM NaCl, eluted with 2.5 mM biotin; SDS-PAGE, in-gel trypsin digest, LC-MS/MS, spectral counting; three biological replicates; CGEP-STREP eluates as negative control.

Results are given in words; binding and its absence hold for the method and conditions named. In cells and extracts the contact can be indirect. Here binding means that the protein was enriched with, or labelled near, the bait; the list need not be complete. Where a sequence is shown, tags or fusion partners need not be part of it.

B1: DUF760-6 (clade 1) (protein, UniProt Q9LVJ0 76-421)
chain: ASSASNDASSGSSPKPIAPLQLQSPAGQFLSQILVSHPHLVPAAVEQQLEQLQTDRDSQGQNKDSASVPGTDIVLYRRIAELKENERRRTLEEILYALVVQKFMEANVSLVPSVSPSSDPSGRVDTWPTKVEKLERLHSPEMYEMIHNHLALILGSRMGDLNSVAQISKLRVGQVYAASVMYGYFLKRVDQRFQLEKTMKILPGGSDESKTSVEQAEGTATYQAAVSSHPEVGAFAGGVSAKGFGSEIKPSRLRSYVMSFDAETLQRYATIRSREAVGIIEKHTEALFGKPEIVITPEGTVDSSKDEQIKISFGGMKRLVLEAVTFGSFLWDVESHVDARYHFVLN
For the molecule B1, the binding entry was “binds”.

B2: GluTR binding protein (GBP or PGR7) (protein, UniProt Q9LU39 43-317)
chain: SVSTTLDTPATASTHKPFPAEVSRSIMELSSVGTLSTLTHDGWPLGVGVRFAVDKDGTPVLCLNRSVSPDKRSALHVQLEQCGLRTPQCTIQGSIGRPGDDTVLKRLSATWREKFGEEVKEDSLYVVAVDRVLQMEDFMEDGIWVASSDYKNASPDPLRDIAEDIVNQINANNMEDIFRFCNVYVDLDFVVSETKMIWMDRLGFDLRVWSPRGVYDVRIPFPMEVTDEKGAKSSFNGMSQLAWEVEKSYCPADFNKVKLLKQVVGSSHSHKGGGQ
On to B2, for which the binding entry was “binds”.

B3: tRNA/rRNA methyltransferase (AT4G36390.1) (protein, UniProt Q8H0V1 1-640)
chain: MASSSLSSLSSILSNPHGCSLCFKASTQRCFALRFLSSKATHASSSSSSALLPRCRSSTHRLTQKPINRKKGFSLNLSRSFSISQIASSGKFDGPSLHQFVSNAQAHASLTTPETESESTLDSDIASKGRIYHETYGCQMNINDMEIVLAIMKNSGYKEVVTDPESAEVIFVNTCAIRENAEQRVWQRLNYFWFLKREWKVNAATGRAKSLKPPKVVVLGCMAERLKDKILDSDKMVDVVCGPDAYRDLPRLLEEVDYGQKGINTLLSLEETYADISPVRISENSITAFVSVMRGCNNMCAFCIVPFTRGRERSRPVESIIREVGELWESGVKEVTLLGQNVNSYNDDSADRESGANWEYSEGFSSRCKVKNMGLRFADLLDRLSVEFPEMRFRFTSPHPKDYPDELLYLMRDRHNICNLIHLPAQSGNSRILEQMRRGYTREAYLDLVKKIRSIIPDVAITSDFITGFCGETEEEHQETLSLVRAVGYDMAYMFAYSMREKTHAHRNYTDDVPEEVKQRRLTELIDAFRETTGPCYDSQVGSTQLVLVEGPNKRAPETELIGKTDKGHRVSFVTKPLFDKACLLDGDDLKRNPGIGDFVEVQIEKSTRASLFGEALAISKMSLFHDVGVVDAVVASCAS
With B3, the binding entry is “binds”.

B4: CPN10–1 (protein, UniProt O80504 40-139)
chain: IKAISTKWEPTKVVPQADRVLVRLEDLPIKSSGGVLLPKAAVKFERYLTGEIISVGSEVGQQVGPGKRVLFSDVSAYEVDLGTDARHCFCKESDLLALVE
In the case of B4, the binding result is “binds”.

B5: DEAD box RNA helicase (RH3) (EMB1138; globular stage) (protein, UniProt Q8L7S8 61-748)
chain: AVATPNSVLSEEAFKSLGLSDHDEYDLDGDNNNVEADDGEELAISKLSLPQRLEESLEKRGITHLFPIQRAVLVPALQGRDIIARAKTGTGKTLAFGIPIIKRLTEEAGDYTAFRRSGRLPKFLVLAPTRELAKQVEKEIKESAPYLSTVCVYGGVSYTIQQSALTRGVDVVVGTPGRIIDLIEGRSLKLGEVEYLVLDEADQMLAVGFEEAVESILENLPTKRQSMLFSATMPTWVKKLARKYLDNPLNIDLVGDQDEKLAEGIKLYAIATTSTSKRTILSDLITVYAKGGKTIVFTQTKRDADEVSLALSNSIATEALHGDISQHQRERTLNAFRQGKFTVLVATDVASRGLDIPNVDLVIHYELPNDPETFVHRSGRTGRAGKEGSAILMHTSSQKRTVRSLERDVGCHFEFISPPTVGDLLESSADQVVATLNGVHPDSIKFFSATAQKLYEEKGTDALAAALAHLSGFSQPPSSRSLLSHEKGWVTLQLIRDPTNARGFLSARSVTGFLSDLYRTAADEVGKIFLIADDRIQGAVFDLPEEIAKELLEKDVPEGNSLSMITKLPPLQDDGPSSDNYGRFSSRDRMPRGGGGSRGSRGGRGGSSRGRDSWGGDDDRGSRRSSGGGSSWSRGGSSSRGSSDDWLIGGRSSSSSRAPSRERSFGGSCFICGKSGHRATDCPDKRGF
As to B5, the binding result is reported as “binds”.

B6: arogenate dehydratase 2 (ADT2) (protein, UniProt Q9SSE7 67-381)
chain: AMEVKKIFEDSPLLPKPLSSNQLTESVSNGSRVRVAYQGVRGAYSESAAEKAYPNCEAVPCEEFDTAFEAVERWLVDRAVLPIENSLGGSIHRNYDLLLRHNLHIVGEVKLAVRHCLLANHGVNIEDLRRVLSHPQALAQCENTLTKLGLVREAVDDTAGAAKQIAFENLNDAAAVASEKAAKIYGLNIVAKDIQDDCDNVTRFLMLAREPIIPGTNRLFKTSIVFSLEEGPGVLFKALAVFALRQINLTKIESRPLRKHPLRASGGLKYFDYLFYVDFEASMADEVAQNALRHLEEFATFLRVLGSYPVDTTML
As for B6, the binding result was “binds”.

B7: CLPT1 (protein, UniProt Q93WL3 65-238)
chain: STVLNVPIAQPENGSSDKIPKWSARAIKSLAMGELEARKLKYPSTGTEAILMGILVEGTSTVAKFLRGNGVTLFKVRDETLSLLGKSDMYFFSPEHPPLTEPAQKAIAWAIDEKNKSDVDGELTTAYLLLGVWSQKDSAGRQILEKLGFNEDKAKEVEKSMNEDVDLSFKKQGQ
B7: the binding result is “binds”.

B8: Rubisco assembly factor 2 (RAF2) (protein, UniProt Q9LU63 51-220)
chain: SNLAQDFLGDFGARDPYPEEIASQFGDKVLGCQSTEHKILIPNASVLSLSQLQCSPVSSSQPPLSGDDARTLLHKVLGWSIVDNEAGGLKIRCMWKVRDFGCGVELINRIHKVAEASGHYPSLHLESPTQVRAELFTSSIGGLSMNDFIMAAKIDDIKTSDLSPRKRAWA
As for B8, the binding entry was “binds”.

B9: ribose-phosphate pyrophosphokinase 1/phosphoribosyl diphosphate synthetase 1 (PRSI) (protein, UniProt Q42581 50-403)
chain: CDMPESLNVGNGNPSIPIINERTLPKFLESARMEKSVNRTNTRLKLFSGTANPALAQEIAWYMGLDLGKVNIKRFADGEIYVQLQESVRGCDVYLVQPTCTPTNENLMELLIMVDACRRASAKKVTAVIPYFGYARADRKTQGRESIAAKLVANLITEAGADRVLACDLHSGQSMGYFDIPVDHVYCQPVILDYLASKSIPSEDLVVVSPDVGGVARARAFAKKLSDAPLAIVDKRRSGHNVAEVMNLIGDVRGKVAIMVDDMIDTAGTIVKGAALLHQEGAREVYACCTHAVFSPPAIERLSGGLLQEVIVTNTLPVAEKNYFPQLTILSVANLLGETIWRVHDDSSVSSIFL
Consider B9, for which the binding entry is “binds”.

B10: ribose-phosphate pyrophosphokinase (AT2G44530.1) (protein, UniProt O64888 34-394)
chain: CNAADPYKFDGGNSAGFHLLTGDTVPASFSRTRLEDSIYQNTTRLRIFSGTANPILAQEISCYLGLDLGKIKIKRFADGEIYVQLQESVRGCDVFLVQPTCPPANENLMELLVMIDACRRASAKTITAVIPYFGYARADRKTQGRESIAAKLVANLITQSGADRVLACDLHSGQSMGYFDIPVDHVYGQPVILDYLASKAISSEDLVVVSPDVGGVARARAFAKKLSDAPLAIVDKRRHGHNVAEVMNLIGDVKGKVAIMVDDMIDTAGTISKGAALLHQEGAREVYACTTHAVFSPPAISRLSSGLFQEVIITNTIPLSEKNYFPQLTVLSVANLLGETIWRVHDDCSGAIEPFSTLGID
For the molecule B10, the binding entry is listed as “binds”.

B11: arogenate dehydratase 4 (ADT4) (protein, UniProt O22241 35-424)
chain: CGYRSESFSFPNGVSVSRSDWQSSCAILSSKVASVENTGGLADKIAAVNGHTNGSVNLGLVAVESTNGKLAPAQPLTITDLSPAPLHGSSLRVAYQGVPGAYSEAAAGKAYPNCDAIPCDQFDVAFQAVELWIADRAVLPVENSLGGSIHRNYDLLLRHRLHIVGEVQIPVHHCLLALPGVRTDCVSRVISHPQALAQTEHSLDVLTPHAAREAFHDTAAAAEYISANDLHDTAAVASARAAELYNLQILADGIQDDPGNVTRFLMLAREPIIPRTDRPFKTSIVFAAQEHKGTSVLFKVLSAFAFRDISLTKIESRPHHNRPLRVVGDGSFGTSKNFEYMFYVDFEASMAEPRAQNALAEVQEYTSFLRVLGSYPMDMTPWSMTSTEEA
For the molecule B11, the binding entry is given as “binds”.

B12: 5′-adenylylsulfate reductase-2 (APR2) (protein, UniProt P92981 67-454)
chain: ASTLIAPEVEEKGGEVEDFEQLAKKLEDASPLEIMDKALERFGDQIAIAFSGAEDVALIEYARLTGKPFRVFSLDTGRLNPETYRLFDAVEKQYGIRIEYMFPDAVEVQALVRNKGLFSFYEDGHQECCRVRKVRPLRRALKGLKAWITGQRKDQSPGTRSEIPIVQVDPVFEGLDGGVGSLVKWNPLANVEGADVWNFLRTMDVPVNALHAQGYVSIGCEPCTRPVLPGQHEREGRWWWEDAKAKECGLHKGNIKEEDGAADSKPAAVQEIFESNNVVALSKGGVENLLKLENRKEAWLVVLYAPWCPFCQAMEASYIELAEKLAGKGVKVAKFRADGEQKEFAKQELQLGSFPTILLFPKRAPRAIKYPSEHRDVDSLMSFVNLLR
For the molecule B12, the binding entry is given as “binds”.

The values are drawn from publication PMC8889267.
